Results reported in patent publication US20190055299A1 (University of Texas, published 2019).

Target: T1, CD123 recombinant protein fused to Fc (UniProt P26951 19-305)
T1 construct: Bought staining reagent; also called CD123 Recombinant fused to Fc; Sino biologicals 10518-H03H-20; not shown: Fc part
T1 sequence (looked up): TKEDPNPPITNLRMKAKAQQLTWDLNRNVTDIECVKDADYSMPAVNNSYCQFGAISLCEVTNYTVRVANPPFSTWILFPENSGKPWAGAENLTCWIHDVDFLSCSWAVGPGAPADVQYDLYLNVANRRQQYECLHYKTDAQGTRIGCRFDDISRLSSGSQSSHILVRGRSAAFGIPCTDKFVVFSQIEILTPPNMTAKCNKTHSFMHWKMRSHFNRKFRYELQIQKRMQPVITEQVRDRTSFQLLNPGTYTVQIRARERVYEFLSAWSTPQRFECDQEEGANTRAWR
Assay: flow cytometry, day 21; CAR T cells stained with CD123-Fc, then anti-Fc and anti-CD3
Excerpt: CAR plasmids (typical representation of CAR plasmid is given in FIG. 3B, left) along with transposase SB11 (FIG. 3B, right) were electroporated into CD56⁺ NK cell depleted PBMC and expanded on Clone1-CD123 at 2:1 AaPC:T cell ratio in presence of recombinant cytokines IL2 and IL-21. T cell cultures were stimulated with AaPC and surface phenotyped every 7 days starting from day 1. CAR expression was detected with CD123 recombinant protein fused to Fc followed by serial staining with antibodies specific to Fc and CD3. […] Chimeric CARs expanded at similar rates as regular CARs (FIGS. 4B and 4C).

B1: CAR 5 (chimeric CD123-specific CAR with chimeric scFv) (other)
chain: DVQITQSPSYLAASPGETITINCRASKSISKDLAWYQEKPGKTNKLLIYSGSTLQSGIPSRFSGSGSGTDFTLTISSLEPEDFAMYYCQQHNKYPYTFGGGTKLEIKGSTSGSGKPGSGEGSTKGQIQLVQSGPELKKPGETVKISCKTSGYVFTNYGMNWVKQAPGKGFKWMGWMNTNTGEPTSLEDFKGRFAFSLETSASTAYLQINNLKNDDTATYFCARSGGYDPMDYWGQGTSVTVSSKPTTTPAPRPPTPAPTIASQPLSLRPEACRPAAGGAVHTRGLDFACDIYIWAPLAGTCGVLLLSLVITLYCNHRNRSKRSRGGHSDYMNMTPRRPGPTRKHYQPYAPPRDFAAYRSRVKFSRSADAPAYQQGQNQLYNELNLGRREEYDVLDKRRGRDPEMGGKPRRKNPQEGLYNELQKDKMAEAYSEIGMKGERRRGKGHDGLYQGLSTATKDTYDALHMQALPPR
notes: Chimeric antigen receptor on human T cells; The scFv mixes VH and VL of two different anti-CD123 mAbs (26292, 32701, 32703, 32716), with CD8alpha hinge, CD8 TM, and CD28 and CD3zeta endodomains; also called chimeric CAR
B1: binds.

B2: CAR 7 (chimeric CD123-specific CAR with chimeric scFv) (other)
chain: DVQITQSPSYLAASPGETITINCRASKSISKDLAWYQEKPGKTNKLLIYSGSTLQSGIPSRFSGSGSGTDFTLTISSLEPEDFAMYYCQQHNKYPYTFGGGTKLEIKGSTSGSGKPGSGEGSTKGQIQLVQSGPELKKPGETVKISCKASGYIFTNYGMNWVKQAPGKSFKWMGWINTYTGESTYSADFKGRFAFSLETSASTAYLHINDLKNEDTATYFCARSGGYDPMDYWGQGTSVTVSSKPTTTPAPRPPTPAPTIASQPLSLRPEACRPAAGGAVHTRGLDFACDIYIWAPLAGTCGVLLLSLVITLYCNHRNRSKRSRGGHSDYMNMTPRRPGPTRKHYQPYAPPRDFAAYRSRVKFSRSADAPAYQQGQNQLYNELNLGRREEYDVLDKRRGRDPEMGGKPRRKNPQEGLYNELQKDKMAEAYSEIGMKGERRRGKGHDGLYQGLSTATKDTYDALHMQALPPR
notes: Chimeric antigen receptor on human T cells with a mixed VH/VL scFv, CD8alpha hinge, CD8 TM, and CD28 and CD3zeta endodomains; The entry may include a signal peptide; also called chimeric CAR
B2: binds.

B3: CAR 8 (chimeric CD123-specific CAR with chimeric scFv) (other)
chain: DIVLTQSPASLAVSPGQRATISCRASESVDNYGNTFMHWYQQKPGQPPKLLIYRASNLESGIPARFSGSDSRTDFTLTINPVEADDVATYYCQQSKEDPPTFGAGTKLELKGSTSGSGKPGSGEGSTKGQIQLVQSGPELKKPGETVKISCKASGYIFTNYGMNWVKQAPGKSFKWMGWINTYTGESTYSADFKGRFAFSLETSASTAYLHINDLKNEDTATYFCARSGGYDPMDYWGQGTSVTVSSKPTTTPAPRPPTPAPTIASQPLSLRPEACRPAAGGAVHTRGLDFACDIYIWAPLAGTCGVLLLSLVITLYCNHRNRSKRSRGGHSDYMNMTPRRPGPTRKHYQPYAPPRDFAAYRSRVKFSRSADAPAYQQGQNQLYNELNLGRREEYDVLDKRRGRDPEMGGKPRRKNPQEGLYNELQKDKMAEAYSEIGMKGERRRGKGHDGLYQGLSTATKDTYDALHMQALPPR
notes: as for B2
B3: binds.

B4: CAR 4 (regular CD123-specific CAR) (other)
chain: DIVLTQSPASLAVSLGQRATISCRASESVDNYGNTFMHWYQQKPGQPPKLLIYRASNLESGIPARFSGSGSRTDFTLTINPVEADDVATYYCQQSNEDPPTFGAGTKLELKGSTSGSGKPGSGEGSTKGQIQLVQSGPELKKPGETVKISCKASGYIFTNYGMNWVKQAPGKSFKWMGWINTYTGESTYSADFKGRFAFSLETSASTAYLHINDLKNEDTATYFCARSGGYDPMDYWGQGTSVTVSSKPTTTPAPRPPTPAPTIASQPLSLRPEACRPAAGGAVHTRGLDFACDIYIWAPLAGTCGVLLLSLVITLYCNHRNRSKRSRGGHSDYMNMTPRRPGPTRKHYQPYAPPRDFAAYRSRVKFSRSADAPAYQQGQNQLYNELNLGRREEYDVLDKRRGRDPEMGGKPRRKNPQEGLYNELQKDKMAEAYSEIGMKGERRRGKGHDGLYQGLSTATKDTYDALHMQALPPR
notes: Chimeric antigen receptor on human T cells with CD8alpha hinge, CD8 TM, and CD28 and CD3zeta endodomains; The entry may include a signal peptide; also called Regular CAR
B4: binds.

B5: CAR 2 (regular CD123-specific CAR) (other)
chain: DIVLTQSPASLAVSPGQRATISCRASESVDNYGNTFMHWYQQKPGQPPKLLIYRASNLESGIPARFSGSDSRTDFTLTINPVEADDVATYYCQQSKEDPPTFGAGTKLELKGSTSGSGKPGSGEGSTKGQIQLVQSGPELKKPGETVKISCKTSGYVFTNYGMNWVKQAPGKGFKWMGWMNTNTGEPTSLEDFKGRFAFSLETSASTAYLQINNLKNDDTATYFCARSGGYDPMDYWGQGTSVTVSSKPTTTPAPRPPTPAPTIASQPLSLRPEACRPAAGGAVHTRGLDFACDIYIWAPLAGTCGVLLLSLVITLYCNHRNRSKRSRGGHSDYMNMTPRRPGPTRKHYQPYAPPRDFAAYRSRVKFSRSADAPAYQQGQNQLYNELNLGRREEYDVLDKRRGRDPEMGGKPRRKNPQEGLYNELQKDKMAEAYSEIGMKGERRRGKGHDGLYQGLSTATKDTYDALHMQALPPR
notes: as for B4
B5: binds.

B6: CAR 6 (chimeric CD123-specific CAR with chimeric scFv) (other)
chain: DVQITQSPSYLAASPGETITINCRASKSISKDLAWYQEKPGKTNKLLIYSGSTLQSGIPSRFSGSGSGTDFTLTISSLEPEDFAMYYCQQHNKYPYTFGGGTKLEIKGSTSGSGKPGSGEGSTKGQVQLQQPGAELVKPGAPVKLSCKASGYTFTNYWMNWIKQRPGRGLEWIGRIDPSDSESHYNQKFKDKATLTVDKSSNTAYIQLSSLTSEDSAVYYCARYDYDDTMDYWGQGTSVTVSSKPTTTPAPRPPTPAPTIASQPLSLRPEACRPAAGGAVHTRGLDFACDIYIWAPLAGTCGVLLLSLVITLYCNHRNRSKRSRGGHSDYMNMTPRRPGPTRKHYQPYAPPRDFAAYRSRVKFSRSADAPAYQQGQNQLYNELNLGRREEYDVLDKRRGRDPEMGGKPRRKNPQEGLYNELQKDKMAEAYSEIGMKGERRRGKGHDGLYQGLSTATKDTYDALHMQALPPR
notes: as for B2
B6: binds.

B7: CAR 3 (regular CD123-specific CAR) (other)
chain: DIVMTQAAPSVPVTPGESVSISCRSNKSLLHSNGNTYLYWFLQRPGQSPQLLIYRMSNLASGVPDRFSGSGSGTAFTLRISRVEAEDVGVYYCMQHLEYPYTFGGGTKLEIKGSTSGSGKPGSGEGSTKGQVQLQQPGAELVKPGAPVKLSCKASGYTFTNYWMNWIKQRPGRGLEWIGRIDPSDSESHYNQKFKDKATLTVDKSSNTAYIQLSSLTSEDSAVYYCARYDYDDTMDYWGQGTSVTVSSKPTTTPAPRPPTPAPTIASQPLSLRPEACRPAAGGAVHTRGLDFACDIYIWAPLAGTCGVLLLSLVITLYCNHRNRSKRSRGGHSDYMNMTPRRPGPTRKHYQPYAPPRDFAAYRSRVKFSRSADAPAYQQGQNQLYNELNLGRREEYDVLDKRRGRDPEMGGKPRRKNPQEGLYNELQKDKMAEAYSEIGMKGERRRGKGHDGLYQGLSTATKDTYDALHMQALPPR
notes: as for B4
B7: binds.
